Values of other authors as cited in patent US20130079408A1, “PERACID AND 2-HYDROXY ORGANIC ACID COMPOSITIONS AND METHODS FOR TREATING ITEMS” (Fresh Express Incorporated, priority 2009, published 2013).
For at least one compound, name, drawing or mass did not settle the structure.

Settings: cited from earlier work

[O][Cl+][O-] [Chlorine Dioxide]
Oxidation Capacity: 1.57 eV

O=[O+][O-] [Ozone]
Oxidation Capacity: 2.07 eV
